Experimental data published in the supplement of paper PMC5407854, “Inhibitor of ppGalNAc-T3-mediated O-glycosylation blocks cancer cell invasiveness and lowers FGF23 levels” (eLife, 2017).
The full ranking holds about 1,700 compounds; the median of “T3 sensor activation Q score (MG/GFP ratio z-score vs DMSO controls)” is about 0.25, and the highest 2% start at about 1.9. The list shows a part of the results.

System: ppGalNAc-T3 sensor
Test: T3 sensor activation Q score (MG/GFP ratio z-score vs DMSO controls) (SD units); higher = more sensor activation (inhibition of ppGalNAc-T3 glycosylation)
Details: HEK293 sensor cells; 10 µM; 6 h
Description: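 Cells were treated with compound at 10 uM for 6 h, then MG/GFP ratio was read by flow cytometry (10,000 cells per well, duplicate wells). Q = (R - R_neg)/SD_neg relative to DMSO vehicle controls; the signal rises when the glycosyltransferase is inhibited.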

SMILES | T3 sensor activation Q score
Cc1cc(NC(=O)NC(=O)c2ccccc2NC(=O)C(C)N)ccc1Oc1ncc(Br)cn1 (stereo not drawn) | 4.35
O=C(Nc1cccc(-c2ccccc2)c1)N1CCN(C(=O)Nc2cccc(-c3ccccc3)c2)CC1 | 1.1
CC#CC#Cc1cccc(=O)o1 | -1.7
CC(O)(c1ccccc1)C(c1ccccc1)C1CCCCN1 (stereo not drawn) | 1.3
O=c1[nH]cc(Cl)cc1Cl | 0.85
CC(C)C(=O)Nc1cccnc1 | -1.45
CC(=O)c1cc(O)c2ccccc2c1O | 0.45
CC(=O)Nc1ccc(S(=O)(=O)N=S(C)C)cc1 | 1.8
NC(=O)c1nnsc1-c1ccc(-c2snnc2C(N)=O)cc1 | 0.15
CC1(C)N=C(N)NC(=NCCCOc2ccc([N+](=O)[O-])cc2)N1 | 0.35
C=C(C)CN1C(=O)C(C)S/C1=N/N=C1/SCC(=O)N1C (stereo not drawn) | 1.2
CCOC(=O)CSc1nc2nc(Cl)c(Cl)nc2[nH]1 | -0.2
Oc1ccc2ccccc2c1N=Nc1nccs1 | -2.1
COC(=O)Nc1csc2c1NC(=O)CCCC2 | 0.45
CCc1ccc(CCN2C(=O)c3ccccc3C2=O)nc1 | 0.1
Clc1ccc(Oc2nc3c(Cl)cccc3s2)cc1Cl | -0.35
Nc1n[nH]c(CO)n1 | 1.4
Cc1cc(C)n2c(C)nnc2c1 | 1.85
CC(=O)NC1=C/C(=C\[N+](=O)[O-])C=C1O | -0.9
COc1c(/C=N/NC(N)=O)c(OC)c(OC)c2c1CCO2 | 1.45
Nc1ccc(C(=O)C(=O)c2ccc(N)cc2)cc1 | -0.25

SMILES | T3 sensor activation Q score
CCOC(=O)/C(C#N)=C/c1c[nH]c2ccccc12 | -0.4
COc1cccc(/C=C2\CCc3ccccc3C2=O)c1 | -0.1
O=C(Nc1ccc(Br)c2ccccc12)c1ccc2ccccc2c1O | 0.75
CC(=O)OCCN1c2ccccc2Sc2cnccc21 | 0.85
NS(=O)(=O)c1ccc(N=Nc2ccc(=O)[nH]c2O)cc1 | 1.15
O=C1OCC/C1=C\OCCCO/C=C1\CCOC1=O | -0.7
Cc1ccc(NC(=O)Nc2nc3ccccc3s2)cc1NC(=O)Nc1nc2ccccc2s1 | 0.75
COc1cc(-c2ccc(NC(=O)NC3CC3)c(OC)c2)ccc1NC(=O)NC1CC1 | 0.2
CC1=C(C(N)=O)S(=O)(=O)c2ccccc21 | 0.7
Nc1ccc(-c2nc3nc(N)nc(N)c3nc2-c2ccc(N)cc2)cc1 | -0.1
CC(C)(C)n1nc(C2CC2)cc1NC(=O)Nc1ccccc1 | 0.25
O=C(O)c1cc2ccccc2cc1Nc1ccccc1 | 0.75
CC1(C)N=C(N)N=C(N)N1c1cccc(CN)c1 | 0.1
CCCCCC(=O)N1CCCC1 | -0.1
CC(C)(NC(=O)c1cc(Cl)c2ccccc2c1O)C(=O)O | -0.5
CS(=O)(=O)c1ccc(C(=O)Nc2ccc(Cl)c(-c3ccccn3)c2)c(Cl)c1 | 0.3
COc1ccc(N=Cc2c(O)ccc3c2oc2cc(Cl)c(O)c(Cl)c23)cc1 | 0.55
CC(=O)NS(=O)(=O)c1ccc2sc(C)nc2c1 | 0.15
CC(C)C[C@H](NC(=O)[C@H](Cc1ccccc1)NC(=O)c1cnccn1)B(O)O | -0.85
C=CCNC(=S)Nc1c(N)n(C)c(=O)n(C)c1=O | 0.75
Oc1ccccc1Nc1ccccn1 | 1.75

SMILES | T3 sensor activation Q score
N=c1ccn2c(n1)O[C@H]1[C@H](O)[C@@H](CO)O[C@H]12 | -1.6
Brc1ccc(-c2csc(Nc3nc(-c4ccc(Br)cc4)cs3)n2)cc1 | 1
O=c1[nH]cc(F)c(=O)[nH]1 | 0.75
Cc1nc2ccccc2c(N)c1-c1cc(C)c2c(C)nc3ccccc3c2n1 | 1.75
CCCCC(=O)OCC(=O)[C@]1(O)Cc2c(O)c3c(c(O)c2[C@@H](O[C@H]2C[C@H](NC(=O)C(F)(F)F)[C@H](O)[C@H](C)O2)C1)C(=O)c1c(OC)cccc1C3=O | -0.8
COc1ccc2c3c([nH]c2c1)[C@H]1C[C@H]2[C@H](C[C@@H](O)[C@H](OC)[C@H]2CO)CN1CC3 | -0.05
O=C1OC(Cc2ccccc2)C(c2ccccc2)C1=O (stereo not drawn) | 0.75
O=C(Nc1ccc2ccccc2c1)c1cccc(F)c1 | -0.45
CCNC(=O)Oc1ccc[nH]c1=O | -0.25
O=C(Nc1ccc(O)c(C(=O)O)c1)Oc1ccccc1 | 0.9
COc1cccc(-c2nnc(N)o2)c1 | 0.65
C[C@H](CCC(=O)O)[C@H]1CC[C@@]2(C)[C@@H]3C(=O)C[C@H]4C(C)(C)[C@@H](O)CC[C@]4(C)[C@H]3C(=O)C[C@]12C | -0.35
CCOC(=O)c1c(C)c(C(=O)OCC)n(C)c1C | 1.8
O=S(=O)(c1ccc2c(c1)CCCN2)N1CCC[C@H]2CCCC[C@@H]21 | 0.2
CCOC(CNCc1cc(C)c2[nH]c3ccccc3c2c1C)OCC | 0.05
[O-]/[N+](=C\c1ccccc1)CC1(O)CCCCC1 | -0.85
CCCOc1nc2c(c(=O)n(C)c(=O)n2C)n1C | 1.2
OCc1ncccc1O | -0.75
Nc1nnc(-c2cccnc2)s1 | -0.3
C#CC1(O)CCC2C3CCC4=Cc5oncc5CC4(C)C3CCC21C (stereo not drawn) | 0.1
Cc1ccc(C(N)=Nc2ccccc2)cc1 | -0.05

Grouped by structure, the compounds so far containing a nitro group on carbon
SMILES | T3 sensor activation Q score
CC1(C)N=C(N)NC(=NCCCOc2ccc([N+](=O)[O-])cc2)N1 | 0.35
CC(=O)NC1=C/C(=C\[N+](=O)[O-])C=C1O | -0.9
